The results are deposited in PubChem (AID357; NCATS, 2005).

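A 5-hour EGF-triggered AP-1 reporter test in ME-180 cells, measured as the 460/530 nm ratio of the cleaved substrate.
Percent change in reporter activity against controls; negative values mean inhibition and positive values mean activation, so larger magnitude in either direction is the stronger effect.
Calls follow the dose-response shape of the emission ratio; inconclusive is used when emission shifts sharply across the titration, for example from compound fluorescence.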

Values are in %.
Every entry below has the call inconclusive.
Only part of the assay is shown, chiefly results filed as inconclusive.
The first word of each remark tells which way the curve ran; it can be opposite to the aim of the assay.

{"compound": "COc1ccc(C(=O)OC2C[C@H]3CC[C@@H](C2)N3C)cc1OC", "stereo": "stereo partly specified", "tested on / at": "at 17.2 µM (top of the series)", "activity change (%)": "35.16", "curve": "activator"}
{"compound": "CCCC[C@H](CC)CN=C(N)NC(N)=NCCCCCCN=C(N)NC(N)=NC[C@@H](CC)CCCC", "tested on / at": "at 17.2 µM (top of the series)", "activity change (%)": "24.24", "curve": "inhibitor"}
{"compound": "CCN(CC)CCOC(=O)C1(C2CCCCC2)CCCCC1", "tested on / at": "at 17.2 µM (top of the series)", "activity change (%)": "18.96", "curve": "inhibitor"}
{"compound": "CP(=O)(O)CCCN", "tested on / at": "at 38 µM (top of the series)", "activity change (%)": "48.61", "curve": "activator"}
{"compound": "CSc1ccc2c(c1)N(CC[C@H]1CCCCN1C)c1ccccc1S2", "tested on / at": "at 38 µM (top of the series)", "activity change (%)": "73.17", "curve": "activator"}
{"compound": "CN(C)c1ccc(-c2ccc3ncnc(-n4ccnc4)c3c2)cc1", "tested on / at": "at 7.69 µM (top of the series)", "activity change (%)": "-53.86", "curve": "inhibitor"}
{"compound": "O=S(=O)(c1ccccc1)N1CCC[C@@]2(CCN(C(c3ccccc3)c3ccccc3)C2)C1", "tested on / at": "at 7.69 µM (top of the series)", "activity change (%)": "66.69", "curve": "activator"}
{"compound": "CN1CCN(c2ncc3nc(-c4cccs4)c(=O)n(Cc4cccs4)c3n2)CC1", "tested on / at": "at 7.69 µM (top of the series)", "activity change (%)": "91.26", "curve": "activator"}
{"compound": "Oc1cc2c(cc1O)CN(C(=S)NCCc1ccc(Cl)cc1)CCC2", "tested on / at": "at 38 µM (top of the series)", "activity change (%)": "-41.82", "curve": "inhibitor"}
{"compound": "COc1cccc(Cn2c(=O)c(-c3cccs3)nc3cnc(N4CCNCC4)nc32)c1", "tested on / at": "at 7.69 µM (top of the series)", "activity change (%)": "1.197", "curve": "activator"}
{"compound": "COc1ccc2[nH]cc(CCNc3ccnc(-c4cccnc4)n3)c2c1", "tested on / at": "at 7.69 µM (top of the series)", "activity change (%)": "-43.58", "curve": "inhibitor"}
{"compound": "COc1ccc(-c2nc3cnc(N4CCN(C)CC4)nc3n(Cc3cccc(OC)c3)c2=O)cc1", "tested on / at": "at 7.69 µM (top of the series)", "activity change (%)": "124.9", "curve": "activator"}
{"compound": "O=C(Oc1ccccc1)N1CCC2(CCCN(c3cccc(-c4ccccc4)c3)C2)CC1", "tested on / at": "at 7.69 µM (top of the series)", "activity change (%)": "43.91", "curve": "activator"}
{"compound": "COc1cccc(Cn2c(=O)c(-c3ccccc3)nc3cnc(N4CCNCC4)nc32)c1", "tested on / at": "at 7.69 µM (top of the series)", "activity change (%)": "104.6", "curve": "activator"}

The first 2 entries again:

| Compound | tested on / at | activity change (%) | curve |
|---|---|---|---|
| `COc1ccc(C(=O)OC2C[C@H]3CC[C@@H](C2)N3C)cc1OC` (stereo partly specified) | at 17.2 µM (top of the series) | 35.16 | activator |
| `CCCC[C@H](CC)CN=C(N)NC(N)=NCCCCCCN=C(N)NC(N)=NC[C@@H](CC)CCCC` | at 17.2 µM (top of the series) | 24.24 | inhibitor |